The other results are listed elsewhere or left out.
How the values were obtained:
Assay in all cases: log2 fold change, soluble protein after heating vs DMSO (PISA); higher = thermal stabilisation; K562 lysate, 10 uM; active = over 0.2 and 3.5 SD of the protein, either way, in both replicates (recomputed)
[1] = compound: c1ccc([C@@H]2C[C@H]2NC2CCNCC2)cc1
How it was run: (§1)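 Values give the log-two fold change in thermal stability against solvent controls, from duplicates. Crude K562 extract at 1 mg/mL protein, made by dounce homogenisation in PBS pH 7.4 with 1 mM MgCl2, was treated with 10 μM compound for 30 min. After 3 min heating across 48°C-58°C, aliquots were pooled, adjusted to 0.5% NP-40 at 4°C and centrifuged at 21,000xg for 90 min. The supernatant was measured by TMTpro 16plex LC-MS/MS with channel sums equalised.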

Protein sequences, listed by entry. Tags and fused reporters are not part of them. Lines headed by an entry give the natural chain unless they say otherwise; changes in a name come on top.
UniProt Q9Y592: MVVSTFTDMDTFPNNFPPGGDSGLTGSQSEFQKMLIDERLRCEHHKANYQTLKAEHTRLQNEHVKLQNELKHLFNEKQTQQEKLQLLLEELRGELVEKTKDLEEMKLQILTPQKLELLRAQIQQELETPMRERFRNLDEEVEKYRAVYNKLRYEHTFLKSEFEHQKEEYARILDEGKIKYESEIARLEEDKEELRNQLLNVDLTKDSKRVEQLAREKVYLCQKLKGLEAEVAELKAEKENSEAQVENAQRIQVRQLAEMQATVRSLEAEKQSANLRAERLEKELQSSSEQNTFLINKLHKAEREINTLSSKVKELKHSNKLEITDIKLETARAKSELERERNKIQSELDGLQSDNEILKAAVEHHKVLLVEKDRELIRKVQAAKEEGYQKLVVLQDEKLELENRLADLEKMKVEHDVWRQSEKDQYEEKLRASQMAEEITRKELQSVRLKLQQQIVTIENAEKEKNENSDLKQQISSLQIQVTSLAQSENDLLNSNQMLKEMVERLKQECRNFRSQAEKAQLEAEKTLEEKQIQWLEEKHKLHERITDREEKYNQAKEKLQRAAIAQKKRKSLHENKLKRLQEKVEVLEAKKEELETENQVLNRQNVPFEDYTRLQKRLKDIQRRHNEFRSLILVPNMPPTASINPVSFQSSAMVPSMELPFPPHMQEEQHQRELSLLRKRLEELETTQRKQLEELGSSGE
UniProt Q9P209, whole entry, looked up: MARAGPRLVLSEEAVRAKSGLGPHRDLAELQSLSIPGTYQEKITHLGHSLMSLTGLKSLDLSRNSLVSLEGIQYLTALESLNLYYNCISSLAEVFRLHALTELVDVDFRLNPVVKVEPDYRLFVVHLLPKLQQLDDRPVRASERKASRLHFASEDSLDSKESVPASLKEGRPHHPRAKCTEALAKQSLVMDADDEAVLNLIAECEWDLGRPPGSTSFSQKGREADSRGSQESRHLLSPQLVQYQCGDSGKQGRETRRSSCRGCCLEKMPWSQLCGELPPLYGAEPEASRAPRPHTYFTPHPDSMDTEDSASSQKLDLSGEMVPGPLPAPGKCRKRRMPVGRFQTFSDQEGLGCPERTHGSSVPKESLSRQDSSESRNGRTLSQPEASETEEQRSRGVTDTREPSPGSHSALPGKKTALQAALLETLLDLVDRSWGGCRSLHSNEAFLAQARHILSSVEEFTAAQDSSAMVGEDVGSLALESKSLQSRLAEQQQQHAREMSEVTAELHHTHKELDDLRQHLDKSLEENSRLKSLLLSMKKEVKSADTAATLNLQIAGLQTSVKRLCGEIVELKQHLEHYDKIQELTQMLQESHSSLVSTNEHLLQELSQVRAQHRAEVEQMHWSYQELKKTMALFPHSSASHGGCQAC
UniProt Q5SW79: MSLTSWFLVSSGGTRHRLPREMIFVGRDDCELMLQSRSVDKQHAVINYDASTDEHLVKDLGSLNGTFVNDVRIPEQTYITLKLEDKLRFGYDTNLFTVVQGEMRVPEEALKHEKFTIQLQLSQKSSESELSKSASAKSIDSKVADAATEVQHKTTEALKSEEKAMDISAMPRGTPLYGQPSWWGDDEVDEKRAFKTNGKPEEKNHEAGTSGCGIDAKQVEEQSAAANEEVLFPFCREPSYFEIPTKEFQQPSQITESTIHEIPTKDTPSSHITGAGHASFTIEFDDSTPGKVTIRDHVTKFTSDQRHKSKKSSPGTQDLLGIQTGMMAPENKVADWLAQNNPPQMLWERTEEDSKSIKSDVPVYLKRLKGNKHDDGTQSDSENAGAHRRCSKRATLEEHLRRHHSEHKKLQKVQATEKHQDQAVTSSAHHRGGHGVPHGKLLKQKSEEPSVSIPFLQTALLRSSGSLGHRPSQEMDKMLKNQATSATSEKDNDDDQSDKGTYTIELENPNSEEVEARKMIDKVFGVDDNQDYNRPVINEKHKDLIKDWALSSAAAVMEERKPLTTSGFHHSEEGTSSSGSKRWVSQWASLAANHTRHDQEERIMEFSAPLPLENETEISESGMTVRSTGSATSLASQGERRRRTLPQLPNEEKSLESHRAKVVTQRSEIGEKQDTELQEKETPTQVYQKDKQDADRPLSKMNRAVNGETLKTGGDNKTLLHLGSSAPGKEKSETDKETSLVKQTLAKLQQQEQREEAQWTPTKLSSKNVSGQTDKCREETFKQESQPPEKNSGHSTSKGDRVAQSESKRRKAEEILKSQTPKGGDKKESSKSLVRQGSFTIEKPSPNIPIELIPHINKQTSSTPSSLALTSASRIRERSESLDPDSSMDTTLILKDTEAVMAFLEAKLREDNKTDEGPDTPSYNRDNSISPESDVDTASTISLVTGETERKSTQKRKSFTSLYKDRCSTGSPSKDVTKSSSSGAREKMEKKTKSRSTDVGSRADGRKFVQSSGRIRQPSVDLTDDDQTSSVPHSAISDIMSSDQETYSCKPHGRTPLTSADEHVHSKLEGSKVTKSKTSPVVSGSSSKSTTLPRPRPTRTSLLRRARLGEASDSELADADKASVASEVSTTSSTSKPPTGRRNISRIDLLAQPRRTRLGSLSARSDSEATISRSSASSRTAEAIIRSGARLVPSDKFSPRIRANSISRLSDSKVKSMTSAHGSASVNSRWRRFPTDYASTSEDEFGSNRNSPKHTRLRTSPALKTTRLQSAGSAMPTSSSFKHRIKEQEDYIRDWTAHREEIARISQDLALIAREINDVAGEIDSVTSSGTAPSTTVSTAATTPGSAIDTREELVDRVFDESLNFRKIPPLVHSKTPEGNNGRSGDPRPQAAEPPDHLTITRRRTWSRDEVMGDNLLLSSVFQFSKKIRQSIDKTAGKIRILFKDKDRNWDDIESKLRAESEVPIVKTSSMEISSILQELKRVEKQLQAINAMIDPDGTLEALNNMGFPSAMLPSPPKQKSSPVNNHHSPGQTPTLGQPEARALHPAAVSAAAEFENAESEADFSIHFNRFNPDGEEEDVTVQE
UniProt P21926: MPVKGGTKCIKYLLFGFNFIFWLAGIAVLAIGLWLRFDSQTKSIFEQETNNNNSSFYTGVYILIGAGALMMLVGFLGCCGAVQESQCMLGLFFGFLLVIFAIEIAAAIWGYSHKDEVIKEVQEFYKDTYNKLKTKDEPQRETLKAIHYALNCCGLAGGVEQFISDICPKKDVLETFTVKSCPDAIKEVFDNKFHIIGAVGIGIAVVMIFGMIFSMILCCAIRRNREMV
UniProt Q6IPU0: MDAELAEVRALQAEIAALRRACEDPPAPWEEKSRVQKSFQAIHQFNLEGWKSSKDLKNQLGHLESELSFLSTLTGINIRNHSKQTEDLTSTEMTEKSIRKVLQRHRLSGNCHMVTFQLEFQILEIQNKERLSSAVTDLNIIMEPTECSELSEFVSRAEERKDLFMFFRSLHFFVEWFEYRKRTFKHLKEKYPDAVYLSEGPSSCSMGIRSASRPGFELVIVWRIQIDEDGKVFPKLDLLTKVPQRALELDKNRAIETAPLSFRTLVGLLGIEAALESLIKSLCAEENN
UniProt Q9P2B7: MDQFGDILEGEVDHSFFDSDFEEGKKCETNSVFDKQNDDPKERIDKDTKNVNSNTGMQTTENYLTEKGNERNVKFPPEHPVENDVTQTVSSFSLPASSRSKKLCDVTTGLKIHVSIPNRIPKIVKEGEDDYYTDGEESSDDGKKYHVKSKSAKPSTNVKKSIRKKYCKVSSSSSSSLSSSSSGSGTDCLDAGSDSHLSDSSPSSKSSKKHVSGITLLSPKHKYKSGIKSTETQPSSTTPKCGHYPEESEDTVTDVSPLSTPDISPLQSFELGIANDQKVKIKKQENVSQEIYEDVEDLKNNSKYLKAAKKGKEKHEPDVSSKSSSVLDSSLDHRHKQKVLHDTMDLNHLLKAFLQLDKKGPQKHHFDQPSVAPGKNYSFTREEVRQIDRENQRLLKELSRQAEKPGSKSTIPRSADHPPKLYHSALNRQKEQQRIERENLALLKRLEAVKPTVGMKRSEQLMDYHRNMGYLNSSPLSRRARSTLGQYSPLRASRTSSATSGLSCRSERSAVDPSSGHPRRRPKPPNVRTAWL
UniProt O76039: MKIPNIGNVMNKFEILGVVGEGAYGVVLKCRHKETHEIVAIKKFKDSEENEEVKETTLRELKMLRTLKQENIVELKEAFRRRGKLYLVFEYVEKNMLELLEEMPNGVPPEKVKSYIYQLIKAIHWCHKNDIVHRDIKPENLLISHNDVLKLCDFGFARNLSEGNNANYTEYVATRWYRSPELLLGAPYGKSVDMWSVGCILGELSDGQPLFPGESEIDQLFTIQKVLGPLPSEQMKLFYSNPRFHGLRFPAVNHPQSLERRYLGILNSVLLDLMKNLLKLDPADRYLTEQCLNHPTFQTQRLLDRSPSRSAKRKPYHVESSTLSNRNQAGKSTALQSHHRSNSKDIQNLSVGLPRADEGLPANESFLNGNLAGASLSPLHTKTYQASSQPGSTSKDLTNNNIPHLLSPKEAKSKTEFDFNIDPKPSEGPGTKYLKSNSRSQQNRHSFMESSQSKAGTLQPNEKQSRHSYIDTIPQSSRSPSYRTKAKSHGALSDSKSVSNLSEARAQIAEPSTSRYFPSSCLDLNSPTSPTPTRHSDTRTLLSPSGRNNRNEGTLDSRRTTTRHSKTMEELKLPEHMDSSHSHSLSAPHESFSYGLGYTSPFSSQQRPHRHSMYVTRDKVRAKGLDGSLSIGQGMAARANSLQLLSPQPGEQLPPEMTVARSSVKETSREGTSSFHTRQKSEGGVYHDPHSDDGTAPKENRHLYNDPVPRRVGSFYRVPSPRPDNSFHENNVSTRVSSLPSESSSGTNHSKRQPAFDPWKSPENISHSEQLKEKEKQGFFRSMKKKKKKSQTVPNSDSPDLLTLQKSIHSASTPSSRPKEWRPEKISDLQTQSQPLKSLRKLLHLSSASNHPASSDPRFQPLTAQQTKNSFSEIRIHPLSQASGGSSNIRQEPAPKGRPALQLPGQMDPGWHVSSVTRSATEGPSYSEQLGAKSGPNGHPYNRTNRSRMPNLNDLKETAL
UniProt Q9BXL8: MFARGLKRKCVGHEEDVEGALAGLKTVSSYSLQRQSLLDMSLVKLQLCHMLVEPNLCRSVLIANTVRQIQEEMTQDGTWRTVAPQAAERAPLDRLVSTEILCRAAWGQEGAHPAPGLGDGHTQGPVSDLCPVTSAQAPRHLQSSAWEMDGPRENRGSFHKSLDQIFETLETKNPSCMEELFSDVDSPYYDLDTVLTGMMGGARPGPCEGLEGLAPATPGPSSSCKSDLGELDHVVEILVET
UniProt A8MTT3: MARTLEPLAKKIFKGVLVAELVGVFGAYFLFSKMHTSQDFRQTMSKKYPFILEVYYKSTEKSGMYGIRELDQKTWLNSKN
UniProt Q16667, whole entry, looked up: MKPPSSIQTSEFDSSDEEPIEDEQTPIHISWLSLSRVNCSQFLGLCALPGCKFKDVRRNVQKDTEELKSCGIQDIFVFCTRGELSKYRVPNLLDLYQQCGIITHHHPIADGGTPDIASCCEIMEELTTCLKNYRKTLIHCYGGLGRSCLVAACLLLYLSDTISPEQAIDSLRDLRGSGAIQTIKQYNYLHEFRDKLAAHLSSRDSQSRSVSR

[2] = compound: CC1=C2C(=CC=C1)N=C(N(C2=O)C3=CC=CC=C3C)CN4C=NC5=C(N=CN=C54)N
How it was run: as §1

[3] = compound: Cc1sc2c(c1C)C(c1ccc(Cl)cc1)=N[C@@H](CC(=O)OC(C)(C)C)c1nnc(C)n1-2
How it was run: as §1

[4] = compound: C1=CC=C(C=C1)[C@H](COC2=CC3=C(C=C2)NC(=O)N3)NC(=O)C4=CC=CN(C4=O)CC5=CC(=C(C=C5)F)F
How it was run: as §1

[5] = compound: CC1=C(SC2=C1C(=N[C@H](C3=NN=C(N32)C)CC(=O)N)C4=CC=C(C=C4)Cl)C
How it was run: as §1

## CEP57 (UniProt Q86XR8)
[1]
  log2 fold change: inactive: -0.049

## CDC37 (UniProt K7EKQ2)
[2]
  log2 fold change: inactive: -0.023
[3]
  log2 fold change: inactive: 0.018
[1]
  log2 fold change: inactive: 0.208

## CEP78 isoform 2 (UniProt Q5JTW2)
[3]
  log2 fold change: inactive: -0.053

## CEP83 (UniProt Q9Y592)
[2]
  log2 fold change: inactive: -0.165
[1]
  log2 fold change: inactive: 0.03

## CEP72 (UniProt Q9P209)
[3]
  log2 fold change: inactive: 0.077

## CD82 (UniProt P27701)
[2]
  log2 fold change: inactive: -0.042
[1]
  log2 fold change: inactive: 0.047

## CEP170 isoform 2 (UniProt Q5SW79)
[3]
  log2 fold change: inactive: 0.103
[1]
  log2 fold change: inactive: -0.058

## CDC42, A0A494C1M1
[1]
  log2 fold change: inactive: 0.257

## CD9 (UniProt P21926)
[2]
  log2 fold change: inactive: -0.008
[3]
  log2 fold change: inactive: 0
[1]
  log2 fold change: inactive: 0.041

## CENPP (UniProt Q6IPU0)
[2]
  log2 fold change: inactive: 0.096
[3]
  log2 fold change: inactive: -0.103
[1]
  log2 fold change: inactive: -0.037

## CD99L2 isoform 5 (UniProt Q8TCZ2)
[2]
  log2 fold change: inactive: 0.095
[3]
  log2 fold change: inactive: -0.064
[1]
  log2 fold change: inactive: -0.096

## CENPC (UniProt Q03188)
[3]
  log2 fold change: inactive: 0.247
[1]
  log2 fold change: inactive: -0.1

## CFAP97 (UniProt Q9P2B7)
[2]
  log2 fold change: inactive: -0.11
[3]
  log2 fold change: inactive: 0.191
[1]
  log2 fold change: inactive: 0.097

## CDKL5 (UniProt O76039)
[2]
  log2 fold change: inactive: 0.043
[3]
  log2 fold change: inactive: -0.139
[1]
  log2 fold change: inactive: -0.132

## CDCA4 (UniProt Q9BXL8)
[2]
  log2 fold change: inactive: 0.347
[3]
  log2 fold change: inactive: 0.032

## CEBPZOS (UniProt A8MTT3)
[2]
  log2 fold change: inactive: -0.03
[3]
  log2 fold change: inactive: -0.006
[1]
  log2 fold change: inactive: 0.018

## CDKN3 (UniProt Q16667)
[4]
  log2 fold change: inactive: 0.026
[5]
  log2 fold change: inactive: 0.077
[1]
  log2 fold change: inactive: -0.054

## CEP57L1 (UniProt Q8IYX8)
[4]
  log2 fold change: inactive: -0.078
[5]
  log2 fold change: inactive: 0.115
[3]
  log2 fold change: inactive: 0.143
[1]
  log2 fold change: inactive: 0.099

Source: the supplement of paper PMC10849652
